No constants are given. Whether binding was seen depends on the method and setting. Binding seen in cells or lysates may run through a third protein. Some binding calls cover weakened binding; strength is not graded here.
Key:
[1] = biological target: vimentin (human (endogenous in Hep3B, MIHA)) (UniProt P08670); assay: co-IP; endogenous proteins in Hep3B lysate; IP with an antibody against vimentin, blot for Agrin
[2] = biological target: integrin β1 (human (endogenous in MHCC-LM3)) (UniProt P05556); assay: co-IP; endogenous proteins in MHCC-LM3 lysate (20 mM Tris-HCl pH 7.5, 150 mM NaCl, 1% Triton X-100); 5 ug antibody with protein A or protein G Sepharose, 4 h at 4 °C; western blot; control cells and cells depleted of Agrin, Lrp4 or MuSK, or treated with 20 ug/ml recombinant Agrin for 12 h
[3] = biological target: vimentin (human (endogenous in Hep3B, MIHA)) (UniProt P08670); assay: condition: only in MIHA cells (low endogenous Agrin); co-IP; endogenous proteins in MIHA lysate (non-tumorigenic liver cells with low endogenous Agrin); IP with an antibody against vimentin, blot for Agrin
[4] = biological target: activated (pY397) focal adhesion kinase (human (endogenous in MHCC-LM3)) (UniProt Q05397); assay: co-IP; pFAK and cortactin in control and Agrin-depleted cells; cell line and bait not told in the text (Supplementary Fig. 9b)

By UniProt entry, the sequences of proteins in these tests, tags left out. Residues count along the entry.
UniProt P08670: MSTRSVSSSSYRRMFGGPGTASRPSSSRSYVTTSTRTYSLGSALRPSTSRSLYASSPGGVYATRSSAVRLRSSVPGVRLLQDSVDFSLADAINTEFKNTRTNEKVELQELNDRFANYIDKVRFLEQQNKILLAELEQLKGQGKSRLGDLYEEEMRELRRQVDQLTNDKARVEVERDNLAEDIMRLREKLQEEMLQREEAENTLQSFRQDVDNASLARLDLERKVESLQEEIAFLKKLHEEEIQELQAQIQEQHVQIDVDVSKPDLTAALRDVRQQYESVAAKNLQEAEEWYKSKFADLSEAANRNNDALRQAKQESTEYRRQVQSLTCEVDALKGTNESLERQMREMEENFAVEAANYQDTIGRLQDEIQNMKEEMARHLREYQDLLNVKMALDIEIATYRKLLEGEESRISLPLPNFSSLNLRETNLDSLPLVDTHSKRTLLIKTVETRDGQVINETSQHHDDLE
UniProt P05556: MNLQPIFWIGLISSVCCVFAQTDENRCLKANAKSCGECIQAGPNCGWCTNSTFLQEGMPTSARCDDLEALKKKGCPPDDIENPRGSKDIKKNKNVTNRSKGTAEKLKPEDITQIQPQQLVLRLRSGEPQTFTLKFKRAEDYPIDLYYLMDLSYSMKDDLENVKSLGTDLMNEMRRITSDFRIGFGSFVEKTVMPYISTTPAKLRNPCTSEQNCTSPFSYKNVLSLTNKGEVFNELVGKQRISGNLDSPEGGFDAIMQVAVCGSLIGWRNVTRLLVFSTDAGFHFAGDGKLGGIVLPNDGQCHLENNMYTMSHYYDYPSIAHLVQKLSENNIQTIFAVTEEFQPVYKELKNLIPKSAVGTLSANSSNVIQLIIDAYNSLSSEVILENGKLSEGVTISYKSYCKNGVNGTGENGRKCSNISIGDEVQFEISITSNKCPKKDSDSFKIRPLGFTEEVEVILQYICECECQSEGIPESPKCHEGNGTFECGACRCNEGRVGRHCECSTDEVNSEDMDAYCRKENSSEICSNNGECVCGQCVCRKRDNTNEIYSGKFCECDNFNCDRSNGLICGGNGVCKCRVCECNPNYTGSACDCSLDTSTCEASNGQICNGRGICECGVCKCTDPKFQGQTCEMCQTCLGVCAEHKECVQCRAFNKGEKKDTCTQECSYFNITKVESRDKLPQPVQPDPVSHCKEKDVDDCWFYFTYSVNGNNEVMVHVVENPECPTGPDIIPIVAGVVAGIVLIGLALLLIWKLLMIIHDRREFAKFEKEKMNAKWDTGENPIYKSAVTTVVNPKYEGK
UniProt Q05397: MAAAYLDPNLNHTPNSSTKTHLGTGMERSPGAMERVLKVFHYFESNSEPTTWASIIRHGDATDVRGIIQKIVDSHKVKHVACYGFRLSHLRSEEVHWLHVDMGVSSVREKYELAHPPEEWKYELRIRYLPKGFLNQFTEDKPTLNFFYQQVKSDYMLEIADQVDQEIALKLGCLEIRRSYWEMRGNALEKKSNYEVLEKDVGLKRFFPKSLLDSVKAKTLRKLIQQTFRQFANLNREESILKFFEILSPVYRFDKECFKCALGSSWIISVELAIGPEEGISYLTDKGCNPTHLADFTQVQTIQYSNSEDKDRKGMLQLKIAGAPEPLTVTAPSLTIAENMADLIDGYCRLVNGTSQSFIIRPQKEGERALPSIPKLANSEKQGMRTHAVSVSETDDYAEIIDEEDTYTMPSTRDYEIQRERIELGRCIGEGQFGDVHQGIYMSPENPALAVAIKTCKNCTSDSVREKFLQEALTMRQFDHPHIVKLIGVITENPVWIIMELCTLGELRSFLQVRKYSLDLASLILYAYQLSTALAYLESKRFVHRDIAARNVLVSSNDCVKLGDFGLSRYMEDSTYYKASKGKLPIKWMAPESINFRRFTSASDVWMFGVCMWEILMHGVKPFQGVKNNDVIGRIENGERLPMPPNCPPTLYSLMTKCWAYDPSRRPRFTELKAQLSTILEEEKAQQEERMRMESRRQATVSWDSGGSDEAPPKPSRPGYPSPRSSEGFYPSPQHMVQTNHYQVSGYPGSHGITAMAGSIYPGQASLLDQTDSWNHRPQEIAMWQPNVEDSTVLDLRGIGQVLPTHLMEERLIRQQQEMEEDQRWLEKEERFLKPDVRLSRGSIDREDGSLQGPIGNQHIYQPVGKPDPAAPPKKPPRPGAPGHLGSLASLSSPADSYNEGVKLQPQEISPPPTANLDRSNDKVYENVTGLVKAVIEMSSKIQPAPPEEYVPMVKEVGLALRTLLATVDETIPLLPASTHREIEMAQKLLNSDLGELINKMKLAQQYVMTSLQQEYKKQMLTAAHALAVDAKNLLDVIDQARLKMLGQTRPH
UniProt O00468, residues 30-2068: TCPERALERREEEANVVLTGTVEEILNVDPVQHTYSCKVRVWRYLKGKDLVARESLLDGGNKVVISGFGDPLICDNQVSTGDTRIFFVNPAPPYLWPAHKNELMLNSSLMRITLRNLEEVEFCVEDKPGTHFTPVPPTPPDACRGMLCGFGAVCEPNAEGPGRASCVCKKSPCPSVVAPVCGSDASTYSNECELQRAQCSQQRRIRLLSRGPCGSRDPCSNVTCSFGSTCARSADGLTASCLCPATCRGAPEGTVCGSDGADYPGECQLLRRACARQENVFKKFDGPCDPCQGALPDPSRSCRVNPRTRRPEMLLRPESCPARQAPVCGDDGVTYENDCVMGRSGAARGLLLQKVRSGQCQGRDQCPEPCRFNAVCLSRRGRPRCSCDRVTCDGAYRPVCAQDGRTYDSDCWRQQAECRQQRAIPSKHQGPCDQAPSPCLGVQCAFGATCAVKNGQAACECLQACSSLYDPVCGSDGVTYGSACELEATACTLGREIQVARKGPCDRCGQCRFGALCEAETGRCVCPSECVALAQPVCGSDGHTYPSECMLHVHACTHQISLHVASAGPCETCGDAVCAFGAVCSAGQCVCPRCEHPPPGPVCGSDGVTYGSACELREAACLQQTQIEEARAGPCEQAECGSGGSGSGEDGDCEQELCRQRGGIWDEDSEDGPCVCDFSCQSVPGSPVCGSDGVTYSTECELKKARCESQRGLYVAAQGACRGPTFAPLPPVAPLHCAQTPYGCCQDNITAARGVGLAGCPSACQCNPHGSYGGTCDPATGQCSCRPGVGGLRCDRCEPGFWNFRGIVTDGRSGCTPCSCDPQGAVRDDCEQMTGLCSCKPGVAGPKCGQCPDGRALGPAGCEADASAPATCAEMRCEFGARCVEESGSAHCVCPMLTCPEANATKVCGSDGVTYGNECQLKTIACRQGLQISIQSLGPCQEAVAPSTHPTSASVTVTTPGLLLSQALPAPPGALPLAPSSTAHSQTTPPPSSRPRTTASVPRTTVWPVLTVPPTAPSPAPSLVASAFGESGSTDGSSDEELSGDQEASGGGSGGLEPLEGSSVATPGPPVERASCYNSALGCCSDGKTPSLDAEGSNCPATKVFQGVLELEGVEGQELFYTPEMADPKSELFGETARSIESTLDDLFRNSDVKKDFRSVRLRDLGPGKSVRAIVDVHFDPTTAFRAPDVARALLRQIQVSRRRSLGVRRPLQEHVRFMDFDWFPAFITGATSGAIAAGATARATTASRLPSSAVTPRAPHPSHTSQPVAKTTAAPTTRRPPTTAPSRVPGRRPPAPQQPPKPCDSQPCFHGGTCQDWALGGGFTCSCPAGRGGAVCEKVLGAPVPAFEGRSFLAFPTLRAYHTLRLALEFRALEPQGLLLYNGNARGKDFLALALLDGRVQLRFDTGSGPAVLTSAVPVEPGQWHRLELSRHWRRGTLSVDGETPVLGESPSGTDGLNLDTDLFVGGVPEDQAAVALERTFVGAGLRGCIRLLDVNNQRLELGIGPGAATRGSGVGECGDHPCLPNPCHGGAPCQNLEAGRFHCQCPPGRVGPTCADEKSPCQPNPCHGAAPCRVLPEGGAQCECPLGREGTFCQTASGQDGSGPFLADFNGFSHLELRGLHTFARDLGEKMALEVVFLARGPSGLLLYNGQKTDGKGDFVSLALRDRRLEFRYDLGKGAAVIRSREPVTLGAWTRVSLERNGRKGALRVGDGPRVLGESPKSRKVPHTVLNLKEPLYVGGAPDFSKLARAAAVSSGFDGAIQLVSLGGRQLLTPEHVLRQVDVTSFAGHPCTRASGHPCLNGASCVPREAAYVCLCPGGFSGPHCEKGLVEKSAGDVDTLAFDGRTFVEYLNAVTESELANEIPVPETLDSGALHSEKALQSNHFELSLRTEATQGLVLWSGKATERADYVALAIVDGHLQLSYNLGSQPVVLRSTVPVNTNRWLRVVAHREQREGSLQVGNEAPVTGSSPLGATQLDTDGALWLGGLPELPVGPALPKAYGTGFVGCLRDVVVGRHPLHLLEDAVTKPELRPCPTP
UniProt Q14247: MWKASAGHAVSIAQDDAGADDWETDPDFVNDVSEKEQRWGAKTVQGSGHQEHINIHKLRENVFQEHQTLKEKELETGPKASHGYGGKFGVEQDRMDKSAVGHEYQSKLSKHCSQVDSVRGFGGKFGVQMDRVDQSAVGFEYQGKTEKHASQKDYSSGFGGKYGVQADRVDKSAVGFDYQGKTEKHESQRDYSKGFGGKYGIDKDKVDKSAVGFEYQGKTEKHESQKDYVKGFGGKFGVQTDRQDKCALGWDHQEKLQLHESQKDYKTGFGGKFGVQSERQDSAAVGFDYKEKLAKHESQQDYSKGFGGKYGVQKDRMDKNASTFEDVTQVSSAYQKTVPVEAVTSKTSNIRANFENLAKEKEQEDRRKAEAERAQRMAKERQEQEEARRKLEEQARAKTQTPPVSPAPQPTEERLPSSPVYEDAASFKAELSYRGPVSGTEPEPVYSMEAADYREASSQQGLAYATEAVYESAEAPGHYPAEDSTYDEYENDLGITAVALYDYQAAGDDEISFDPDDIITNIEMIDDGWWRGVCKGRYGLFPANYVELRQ

binding [1]	binding [2]	binding [3]	binding [4]	Substance
binds	binds	no binding	–	Agrin (from UniProt O00468 30-2068)
–	–	–	binds	cortactin (from UniProt Q14247 1-550)

Reference: publication PMC4317502
